No constants are given. Whether binding was seen depends on the method and setting. Binding seen in cells or lysates may run through a third protein. These calls come from enrichment with a bait or labelling near it, and not all partners need be listed. For part of these data: No binding means not detected with the bait.
Columns and labels:
[1] = biological target: Akt (protein kinase B), Akt1 (mouse (endogenous in Neuro 2A)) (UniProt P31750); test: affinity purification with mass spectrometry; two-step crosslinking co-IP: anti-Akt antibody fixed on protein A/G agarose with DSS, incubated overnight at 4°C with pre-cleared Neuro 2A lysate (1.5 mg protein; PBS, 1% NP-40), then 1.6 mM DSP for 2 h, five washes (25 mM Tris, 150 mM NaCl, 1 mM EDTA, 1% NP-40, 5% glycerol, pH 7.4), elution in Laemmli buffer, SDS-PAGE, nanoLC-MS/MS; cells with or without IGF-1 (10 ng/mL, 10 min); negative control serum IgG or secondary antibody
[2] = biological target: Akt (protein kinase B), Akt1 (mouse (endogenous in Neuro 2A)) (UniProt P31750); test: condition: only with neither DSS- nor DSP-crosslinking; affinity purification with mass spectrometry; conventional co-IP with neither DSS- nor DSP-crosslinking: protein A/G agarose with anti-Akt antibody, pre-cleared Neuro 2A lysate overnight, five washes, elution in Laemmli buffer, nanoLC-MS/MS
[3] = biological target: Akt (protein kinase B), Akt1 (mouse (endogenous in Neuro 2A)) (UniProt P31750); test: affinity purification with mass spectrometry; anti-Akt antibody fixed on the beads via DSS but without DSP-crosslinking, Neuro 2A lysate, nanoLC-MS/MS

Sequences of proteins named here, by UniProt entry; tags and fusion partners are left off.
UniProt P31750: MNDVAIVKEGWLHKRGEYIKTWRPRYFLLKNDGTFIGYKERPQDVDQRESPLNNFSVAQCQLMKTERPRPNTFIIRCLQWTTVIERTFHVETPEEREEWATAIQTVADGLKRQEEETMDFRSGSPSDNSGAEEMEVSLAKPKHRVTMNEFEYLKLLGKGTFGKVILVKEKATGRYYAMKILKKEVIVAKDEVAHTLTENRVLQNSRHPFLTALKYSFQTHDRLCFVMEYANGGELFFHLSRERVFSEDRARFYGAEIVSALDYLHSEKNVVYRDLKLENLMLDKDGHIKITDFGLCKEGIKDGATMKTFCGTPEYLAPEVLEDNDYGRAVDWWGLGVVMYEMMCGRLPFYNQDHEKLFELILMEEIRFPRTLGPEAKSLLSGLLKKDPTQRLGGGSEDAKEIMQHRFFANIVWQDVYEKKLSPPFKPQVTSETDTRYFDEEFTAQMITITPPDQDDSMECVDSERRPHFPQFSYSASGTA

binding [1]: binds
binding [2]: no binding
B1: ErbB3 binding protein 1 (EBP1, also called proliferation-associated protein 2G4) (protein, UniProt P50580 1-394)
chain: MSGEDEQQEQTIAEDLVVTKYKMGGDIANRVLRSLVEASSSGVSVLSLCEKGDAMIMEETGKIFKKEKEMKKGIAFPTSISVNNCVCHFSPLKSDQDYILKEGDLVKIDLGVHVDGFIANVAHTFVIGVAQGTQVTGRKADVIKAAHLCAEAALRLVKPGNQNTQVTEAWNKVAHSFNCTPIEGMLSHQLKQHVIDGEKTIIQNPTDQQKKDHEKAEFEVHEVYAVDVLVSSGEGKAKDAGQRTTIYKRDPSKQYGLKMKTSRAFFSEVERRFDAMPFTLRAFEDEKKARMGVVECAKHELLQPFNVLYEKEGEFVAQFKFTVLLMPNGPMRITSGPFEPDLYKSEMEVQDAELKALLQSSASRKTQKKKKKKASKTVENATSGETLEENGAGD
binding [3]: no binding (only without DSP-crosslinking)
